Some of the results follow.
Experiments:
Assay in all cases: log2 fold change, soluble protein after heating vs DMSO (PISA); higher = thermal stabilisation; K562 cells, 10 uM, 30 min; active = over 0.2 and 3.5 SD of the protein, either way, in both replicates (recomputed)
[1] = compound: CC[C@@H]1C(=O)N(C)c2cnc(Nc3ccc(C(=O)NC4CCN(C)CC4)cc3OC)nc2N1C1CCCC1
Outline: (§1)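 K562 cells (2×10^6 cells/mL) were treated with 10 μM compound for 30 min, and aliquots were heated for 3 min over 48°C-58°C. Pooled aliquots were extracted in PBS with 0.5% NP-40 at 4°C, and the supernatant after 21,000xg for 90 min was measured by TMTpro 16plex LC-MS/MS with channel sums equalised. Reported thermal stability, relative to control samples and from duplicates, is a log2 fold change.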

By UniProt entry, the sequences of proteins in these tests, tags left out. Where a name states a change or a piece, a line headed by the entry shows the natural chain unless it says otherwise.
UniProt P07099: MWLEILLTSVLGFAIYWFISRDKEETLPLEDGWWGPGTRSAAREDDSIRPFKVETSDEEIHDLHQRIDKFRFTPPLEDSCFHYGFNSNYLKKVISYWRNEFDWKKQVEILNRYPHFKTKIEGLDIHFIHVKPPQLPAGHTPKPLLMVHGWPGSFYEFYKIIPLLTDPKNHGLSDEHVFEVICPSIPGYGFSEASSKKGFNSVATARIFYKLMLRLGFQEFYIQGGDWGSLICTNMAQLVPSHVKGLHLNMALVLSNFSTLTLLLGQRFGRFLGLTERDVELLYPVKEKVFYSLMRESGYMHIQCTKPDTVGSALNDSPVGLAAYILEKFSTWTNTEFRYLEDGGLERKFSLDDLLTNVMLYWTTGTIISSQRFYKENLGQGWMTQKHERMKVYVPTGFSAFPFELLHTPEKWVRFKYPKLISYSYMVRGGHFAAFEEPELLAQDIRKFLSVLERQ
UniProt Q8IUD2: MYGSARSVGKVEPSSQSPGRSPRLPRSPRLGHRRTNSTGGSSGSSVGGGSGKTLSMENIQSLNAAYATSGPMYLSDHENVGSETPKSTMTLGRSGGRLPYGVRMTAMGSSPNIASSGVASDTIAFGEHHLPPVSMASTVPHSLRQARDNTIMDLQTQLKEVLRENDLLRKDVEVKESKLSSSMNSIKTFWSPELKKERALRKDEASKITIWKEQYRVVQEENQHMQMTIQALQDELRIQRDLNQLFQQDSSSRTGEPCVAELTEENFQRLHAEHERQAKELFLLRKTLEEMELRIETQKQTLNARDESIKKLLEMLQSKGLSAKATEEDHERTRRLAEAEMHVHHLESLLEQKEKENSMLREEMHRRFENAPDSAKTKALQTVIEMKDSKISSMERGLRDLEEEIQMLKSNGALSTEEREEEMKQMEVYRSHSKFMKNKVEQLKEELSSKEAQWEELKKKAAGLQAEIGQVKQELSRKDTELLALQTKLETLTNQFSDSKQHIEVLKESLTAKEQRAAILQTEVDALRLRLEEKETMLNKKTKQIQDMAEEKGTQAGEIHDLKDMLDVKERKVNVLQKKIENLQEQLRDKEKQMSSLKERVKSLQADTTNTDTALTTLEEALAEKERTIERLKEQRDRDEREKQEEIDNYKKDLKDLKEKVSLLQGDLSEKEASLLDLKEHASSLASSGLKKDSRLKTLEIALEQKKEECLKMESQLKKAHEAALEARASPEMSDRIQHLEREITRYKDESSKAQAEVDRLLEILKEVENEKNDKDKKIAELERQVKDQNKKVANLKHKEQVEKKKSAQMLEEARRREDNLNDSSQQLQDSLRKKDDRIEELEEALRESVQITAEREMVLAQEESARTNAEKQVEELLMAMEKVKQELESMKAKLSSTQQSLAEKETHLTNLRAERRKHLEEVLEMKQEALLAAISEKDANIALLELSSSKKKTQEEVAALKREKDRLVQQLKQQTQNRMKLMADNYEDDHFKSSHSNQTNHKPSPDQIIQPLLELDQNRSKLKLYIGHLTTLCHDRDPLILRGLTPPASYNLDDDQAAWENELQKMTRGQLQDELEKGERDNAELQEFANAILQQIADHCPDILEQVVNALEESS
UniProt Q15024, whole entry, looked up: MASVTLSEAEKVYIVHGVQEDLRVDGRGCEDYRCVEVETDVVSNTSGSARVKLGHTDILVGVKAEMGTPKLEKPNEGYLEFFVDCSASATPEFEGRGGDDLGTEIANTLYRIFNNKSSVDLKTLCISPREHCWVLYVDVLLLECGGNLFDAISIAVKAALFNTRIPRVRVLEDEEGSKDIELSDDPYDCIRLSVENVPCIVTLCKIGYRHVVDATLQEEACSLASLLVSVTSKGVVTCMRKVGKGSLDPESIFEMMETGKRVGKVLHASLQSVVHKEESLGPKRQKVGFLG
UniProt P10768: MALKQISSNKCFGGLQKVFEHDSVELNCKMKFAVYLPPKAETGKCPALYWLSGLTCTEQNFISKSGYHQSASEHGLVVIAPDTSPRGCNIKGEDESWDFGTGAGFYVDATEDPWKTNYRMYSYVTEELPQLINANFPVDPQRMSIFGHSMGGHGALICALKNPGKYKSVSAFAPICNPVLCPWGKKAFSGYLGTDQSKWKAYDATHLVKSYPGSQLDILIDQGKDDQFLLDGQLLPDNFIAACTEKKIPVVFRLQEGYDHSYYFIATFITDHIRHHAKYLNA
UniProt Q16134: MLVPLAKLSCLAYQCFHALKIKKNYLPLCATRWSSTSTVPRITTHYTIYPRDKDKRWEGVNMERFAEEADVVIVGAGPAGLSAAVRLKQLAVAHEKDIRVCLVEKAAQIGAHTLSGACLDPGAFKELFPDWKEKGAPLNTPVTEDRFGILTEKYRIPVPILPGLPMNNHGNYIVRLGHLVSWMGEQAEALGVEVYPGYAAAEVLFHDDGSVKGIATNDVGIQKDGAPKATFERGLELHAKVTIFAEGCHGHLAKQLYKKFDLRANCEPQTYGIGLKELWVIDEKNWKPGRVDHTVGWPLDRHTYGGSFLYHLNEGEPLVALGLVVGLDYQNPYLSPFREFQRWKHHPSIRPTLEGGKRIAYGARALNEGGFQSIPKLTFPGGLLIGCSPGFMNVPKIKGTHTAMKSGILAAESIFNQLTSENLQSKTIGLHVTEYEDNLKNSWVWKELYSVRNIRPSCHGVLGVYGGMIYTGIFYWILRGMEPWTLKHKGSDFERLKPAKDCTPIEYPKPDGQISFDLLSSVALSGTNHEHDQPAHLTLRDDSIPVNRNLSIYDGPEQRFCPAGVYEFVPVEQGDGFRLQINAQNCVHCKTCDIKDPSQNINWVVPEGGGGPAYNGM
UniProt Q96HE7: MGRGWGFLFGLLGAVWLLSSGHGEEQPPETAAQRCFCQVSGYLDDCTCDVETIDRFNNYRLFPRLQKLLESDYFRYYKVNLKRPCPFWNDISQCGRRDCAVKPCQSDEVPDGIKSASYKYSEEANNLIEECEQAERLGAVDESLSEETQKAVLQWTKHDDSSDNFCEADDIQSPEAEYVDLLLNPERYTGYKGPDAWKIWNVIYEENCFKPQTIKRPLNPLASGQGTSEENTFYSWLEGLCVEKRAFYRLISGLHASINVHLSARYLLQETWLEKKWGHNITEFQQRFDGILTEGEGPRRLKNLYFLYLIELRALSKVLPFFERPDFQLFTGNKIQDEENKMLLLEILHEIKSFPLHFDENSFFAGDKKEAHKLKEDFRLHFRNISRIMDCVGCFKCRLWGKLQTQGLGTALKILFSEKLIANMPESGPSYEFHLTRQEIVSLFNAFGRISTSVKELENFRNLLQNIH
UniProt Q13868, whole entry, looked up: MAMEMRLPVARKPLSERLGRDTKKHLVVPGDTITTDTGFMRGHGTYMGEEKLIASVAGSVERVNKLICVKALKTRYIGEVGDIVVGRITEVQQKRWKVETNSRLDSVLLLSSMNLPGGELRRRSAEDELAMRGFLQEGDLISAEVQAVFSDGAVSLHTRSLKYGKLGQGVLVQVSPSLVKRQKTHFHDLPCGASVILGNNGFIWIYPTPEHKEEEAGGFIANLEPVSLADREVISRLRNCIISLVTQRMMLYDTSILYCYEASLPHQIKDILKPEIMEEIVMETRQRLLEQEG
UniProt P28715: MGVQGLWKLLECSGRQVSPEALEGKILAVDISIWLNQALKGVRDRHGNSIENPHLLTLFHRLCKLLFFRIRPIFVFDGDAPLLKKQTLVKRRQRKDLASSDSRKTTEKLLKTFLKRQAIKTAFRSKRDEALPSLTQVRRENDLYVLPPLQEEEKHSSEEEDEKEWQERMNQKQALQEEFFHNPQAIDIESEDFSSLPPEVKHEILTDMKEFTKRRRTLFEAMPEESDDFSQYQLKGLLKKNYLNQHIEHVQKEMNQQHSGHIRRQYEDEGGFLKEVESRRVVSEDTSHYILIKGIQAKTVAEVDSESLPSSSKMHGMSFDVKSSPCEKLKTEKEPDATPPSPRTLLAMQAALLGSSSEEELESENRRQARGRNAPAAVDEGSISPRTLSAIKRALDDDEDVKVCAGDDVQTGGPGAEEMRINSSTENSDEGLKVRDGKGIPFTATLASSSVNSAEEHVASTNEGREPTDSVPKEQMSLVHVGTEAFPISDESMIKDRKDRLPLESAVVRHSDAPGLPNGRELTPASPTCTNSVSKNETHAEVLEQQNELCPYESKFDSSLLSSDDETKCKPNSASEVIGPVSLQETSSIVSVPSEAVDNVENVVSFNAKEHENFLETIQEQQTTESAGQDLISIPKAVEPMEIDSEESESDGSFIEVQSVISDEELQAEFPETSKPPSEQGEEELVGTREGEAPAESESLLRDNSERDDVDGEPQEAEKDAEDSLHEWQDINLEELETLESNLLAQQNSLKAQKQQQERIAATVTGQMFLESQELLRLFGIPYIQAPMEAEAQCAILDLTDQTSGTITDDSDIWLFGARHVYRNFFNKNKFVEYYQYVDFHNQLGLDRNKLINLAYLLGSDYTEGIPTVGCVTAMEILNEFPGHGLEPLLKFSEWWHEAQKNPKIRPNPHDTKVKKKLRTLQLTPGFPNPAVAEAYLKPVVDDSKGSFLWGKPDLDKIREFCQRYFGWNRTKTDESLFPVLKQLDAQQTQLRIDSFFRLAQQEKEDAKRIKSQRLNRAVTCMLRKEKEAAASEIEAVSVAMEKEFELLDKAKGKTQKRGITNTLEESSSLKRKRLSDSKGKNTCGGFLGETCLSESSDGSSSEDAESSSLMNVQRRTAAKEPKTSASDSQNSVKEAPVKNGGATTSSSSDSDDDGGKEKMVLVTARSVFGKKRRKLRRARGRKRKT
UniProt P16930: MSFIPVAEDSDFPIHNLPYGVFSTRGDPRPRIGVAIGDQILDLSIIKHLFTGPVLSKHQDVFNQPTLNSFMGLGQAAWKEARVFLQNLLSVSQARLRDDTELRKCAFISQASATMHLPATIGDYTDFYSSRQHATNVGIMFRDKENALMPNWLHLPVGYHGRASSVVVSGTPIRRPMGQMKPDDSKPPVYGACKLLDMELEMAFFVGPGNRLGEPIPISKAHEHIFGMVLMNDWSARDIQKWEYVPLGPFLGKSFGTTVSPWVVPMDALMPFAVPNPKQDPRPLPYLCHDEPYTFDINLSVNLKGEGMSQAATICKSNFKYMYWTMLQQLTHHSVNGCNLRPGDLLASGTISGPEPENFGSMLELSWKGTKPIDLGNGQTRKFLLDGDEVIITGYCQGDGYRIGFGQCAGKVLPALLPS
UniProt Q9NQT4, whole entry, looked up: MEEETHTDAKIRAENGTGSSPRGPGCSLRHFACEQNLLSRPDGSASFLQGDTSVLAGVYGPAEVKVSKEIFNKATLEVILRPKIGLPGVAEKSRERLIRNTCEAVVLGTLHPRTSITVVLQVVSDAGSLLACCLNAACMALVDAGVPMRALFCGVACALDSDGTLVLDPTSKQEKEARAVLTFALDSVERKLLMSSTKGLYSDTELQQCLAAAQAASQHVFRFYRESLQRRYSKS
UniProt Q9GZU8: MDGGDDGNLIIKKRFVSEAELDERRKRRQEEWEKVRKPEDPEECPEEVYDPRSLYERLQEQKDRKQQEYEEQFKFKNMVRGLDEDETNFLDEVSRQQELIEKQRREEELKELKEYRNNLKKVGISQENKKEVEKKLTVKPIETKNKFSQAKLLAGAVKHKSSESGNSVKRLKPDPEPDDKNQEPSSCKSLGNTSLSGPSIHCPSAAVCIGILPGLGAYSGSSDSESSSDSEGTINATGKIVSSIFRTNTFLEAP
UniProt Q9Y624, whole entry, looked up, stated change not applied: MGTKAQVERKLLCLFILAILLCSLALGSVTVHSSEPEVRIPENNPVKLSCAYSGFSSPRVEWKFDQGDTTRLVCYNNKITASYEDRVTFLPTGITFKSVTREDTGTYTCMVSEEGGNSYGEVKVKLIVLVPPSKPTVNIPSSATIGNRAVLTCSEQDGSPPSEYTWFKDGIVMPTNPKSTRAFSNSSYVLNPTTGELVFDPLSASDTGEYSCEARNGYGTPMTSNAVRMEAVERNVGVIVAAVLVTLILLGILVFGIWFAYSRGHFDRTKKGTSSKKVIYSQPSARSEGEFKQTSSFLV
UniProt P13804: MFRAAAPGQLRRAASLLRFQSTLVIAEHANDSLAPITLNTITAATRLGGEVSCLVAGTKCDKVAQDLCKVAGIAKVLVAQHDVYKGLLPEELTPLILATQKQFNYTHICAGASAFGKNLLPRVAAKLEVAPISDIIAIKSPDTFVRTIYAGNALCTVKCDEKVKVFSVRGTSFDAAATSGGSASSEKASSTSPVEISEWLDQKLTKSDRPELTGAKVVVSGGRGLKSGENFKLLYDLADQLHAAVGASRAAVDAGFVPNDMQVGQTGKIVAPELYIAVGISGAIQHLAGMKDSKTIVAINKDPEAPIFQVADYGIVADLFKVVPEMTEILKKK

volasertib = compound: CC[C@@H]1C(=O)N(C)c2cnc(Nc3ccc(C(=O)N[C@H]4CC[C@H](N5CCN(CC6CC6)CC5)CC4)cc3OC)nc2N1C(C)C [volasertib]
Outline: as §1

[2] = compound: CC[C@H](C)N1C=C(C2=C(C=C(C=C21)C3=CN=C(C=C3)N4CCNCC4)C(=O)NCC5=C(C=C(NC5=O)C)C)C
Outline: as §1

epoxomicin = compound: CC[C@H](C)[C@@H](C(=O)N[C@@H]([C@@H](C)O)C(=O)N[C@@H](CC(C)C)C(=O)[C@]1(CO1)C)NC(=O)[C@H]([C@@H](C)CC)N(C)C(=O)C [epoxomicin]
Outline: as §1

[3] = compound: CCn1c(C(=O)N(C2CC2)C2CC2)cc2c3c(ncn3C)c(Nc3cc(C)n(C)n3)nc21
Outline: as §1

[4] = compound: CCn1cc(-c2ccnc3[nH]c(-c4cccc(CN(C)C)c4)cc23)c(-c2ccc(NC(=O)N(C)C)cc2)n1
Outline: as §1

[5] = compound: CN(C)CC(=O)Nc1ccc2[nH]c(=O)c3ccccc3c2c1
Outline: as §1

rosiglitazone = compound: CN(CCOC1=CC=C(C=C1)C[C@H]2C(=O)NC(=O)S2)C3=CC=CC=N3 (racemic) [rosiglitazone]
Outline: as §1

[6] = compound: CN1C2=C(C3=C1C(=O)N(N=C3)CC4=CC(=CC=C4)N)SC(=C2)S(=O)C
Outline: as §1

[7] = compound: CN1CCC(CNc2ccc3ncc(-c4cccc(OC(F)(F)F)c4)n3n2)CC1
Outline: as §1

saracatinib = compound: CN1CCN(CCOc2cc(OC3CCOCC3)c3c(Nc4c(Cl)ccc5c4OCO5)ncnc3c2)CC1 [saracatinib]
Outline: as §1

sotrastaurin = compound: CN1CCN(c2nc(C3=C(c4c[nH]c5ccccc45)C(=O)NC3=O)c3ccccc3n2)CC1 [sotrastaurin]
Outline: as §1

alvocidib = compound: CN1CC[C@H](c2c(O)cc(O)c3c(=O)cc(-c4ccccc4Cl)oc23)[C@H](O)C1 [alvocidib]
Outline: as §1

Tubastatin A = compound: CN1CCc2c(c3ccccc3n2Cc2ccc(C(=O)NO)cc2)C1 [Tubastatin A]
Outline: as §1

[8] = compound: CNC(=O)C1=CC=CC=C1NC2=NC(=NC=C2Cl)NC3=C(C=C(C=C3)N4CCOCC4)OC
Outline: as §1

defactinib = compound: CNC(=O)c1ccc(Nc2ncc(C(F)(F)F)c(NCc3nccnc3N(C)S(C)(=O)=O)n2)cc1 [defactinib]
Outline: as §1

rucaparib = compound: CNCc1ccc(-c2[nH]c3cc(F)cc4c3c2CCNC4=O)cc1 [rucaparib]
Outline: as §1

[9] = compound: CNc1nc(-c2ccc3c(N)n[nH]c3c2)cc(N2C[C@@H](C(=O)NC3CCCCC3)CC[C@H]2C)n1
Outline: as §1

encorafenib = compound: COC(=O)N[C@@H](C)CNc1nccc(-c2cn(C(C)C)nc2-c2cc(Cl)cc(NS(C)(=O)=O)c2F)n1 [encorafenib]
Outline: as §1

[10] = compound: COC(=O)[C@H](CCSC)NC(=O)C1=C(C=C(C=C1)NC[C@H](CS)N)C2=CC=CC=C2
Outline: as §1

Measured: log2 fold change

EPHX1 (UniProt P07099)
inactive: [1] 0.021 | volasertib 0.121 | [2] -0.03 | epoxomicin -0.006 | [3] -0.018 | [4] 0.053 | [5] -0.056 | rosiglitazone -0.007 | [6] 0.076 | [7] 0.113 | saracatinib 0.113 | sotrastaurin 0.05 | alvocidib 0.006 | Tubastatin A -0.029 | [8] 0.023 | defactinib -0.019 | rucaparib -0.016 | [9] -0.067 | encorafenib -0.023 | [10] 0.048

ERC1 (UniProt Q8IUD2)
inactive: [1] 0.009 | volasertib -0.205 | [2] -0.166 | epoxomicin 0.036 | [3] 0.015 | [4] -0.081 | [5] -0.016 | rosiglitazone -0.016 | [6] 0.094 | [7] -0.104 | saracatinib -0.014 | sotrastaurin -0.24 | alvocidib 0.029 | Tubastatin A 0.165 | [8] -0.072 | defactinib -0.086 | rucaparib -0.005 | [9] -0.025 | encorafenib -0.176 | [10] -0.002

EXOSC7 (UniProt Q15024)
inactive: [1] 0.069 | volasertib -0.03 | [2] -0.058 | epoxomicin -0.067 | [3] 0.023 | [4] 0.023 | [5] -0.027 | rosiglitazone -0.026 | [6] -0.044 | [7] 0.008 | saracatinib -0.006 | sotrastaurin 0.043 | alvocidib 0.054 | Tubastatin A -0.055 | [8] -0.039 | defactinib 0.012 | rucaparib 0.007 | [9] -0.058 | encorafenib -0.006 | [10] 0.017

ESD (UniProt P10768)
inactive: [1] -0.016 | volasertib 0.061 | [2] -0.014 | epoxomicin -0.009 | [3] -0.011 | [4] 0.022 | [5] -0.009 | rosiglitazone 0.003 | [6] -0.052 | [7] 0.002 | saracatinib -0.011 | sotrastaurin 0.047 | alvocidib 0.003 | Tubastatin A 0.039 | [8] 0.091 | defactinib 0 | rucaparib -0.072 | [9] -0.033 | encorafenib -0.006 | [10] -0.001

ETFDH (UniProt Q16134)
inactive: [1] 0.001 | volasertib 0.015 | [2] -0.009 | epoxomicin 0.008 | [3] -0.009 | [4] -0.035 | [5] -0.01 | rosiglitazone 0.022 | [6] -0.053 | [7] -0.023 | saracatinib 0.014 | sotrastaurin -0.008 | alvocidib -0.028 | Tubastatin A -0.006 | [8] 0.017 | defactinib -0.012 | rucaparib -0.018 | [9] 0.127 | encorafenib 0 | [10] 0.006

ERO1A (UniProt Q96HE7)
inactive: [1] 0 | volasertib -0.028 | [2] 0.023 | epoxomicin -0.008 | [3] 0.032 | [4] 0.056 | [5] -0.016 | rosiglitazone 0.006 | [6] 0.047 | [7] 0.02 | saracatinib -0.024 | sotrastaurin -0.01 | alvocidib 0 | Tubastatin A -0.002 | [8] 0.02 | defactinib 0.039 | rucaparib 0.036 | [9] -0.033 | encorafenib 0.027 | [10] 0.002

EXOSC2 (UniProt Q13868)
inactive: [1] 0.044 | volasertib 0.061 | [2] -0.041 | epoxomicin -0.023 | [3] 0.03 | [4] 0.016 | [5] -0.021 | rosiglitazone -0.011 | [6] -0.002 | [7] 0.045 | saracatinib 0.05 | sotrastaurin 0.015 | alvocidib 0.03 | Tubastatin A -0.032 | [8] -0.024 | defactinib 0.029 | rucaparib -0.013 | [9] -0.043 | encorafenib -0.016 | [10] -0.019

ERP29 (UniProt P30040)
inactive: [1] -0.016 | volasertib 0.074 | [2] 0.03 | epoxomicin 0.053 | [3] 0.04 | [4] -0.029 | [5] -0.017 | rosiglitazone -0.016 | [6] -0.017 | [7] 0.083 | saracatinib -0.023 | sotrastaurin 0.006 | alvocidib -0.026 | Tubastatin A 0.012 | [8] 0.016 | defactinib 0.003 | rucaparib 0.035 | [9] -0.007 | encorafenib 0.006 | [10] -0.001

ERCC5 (UniProt P28715)
inactive: [1] -0.156 | volasertib -0.126 | [2] 0.052 | epoxomicin -0.054 | [3] -0.096 | [4] -0.032 | [5] -0.035 | rosiglitazone 0.16 | [6] -0.15 | [7] 0.044 | saracatinib -0.015 | sotrastaurin 0.087 | alvocidib -0.038 | Tubastatin A -0.004 | [8] 0.038 | defactinib -0.068 | rucaparib -0.048 | [9] -0.018 | encorafenib 0.046 | [10] 0.006

FAH (UniProt P16930)
inactive: [1] -0.125 | volasertib 0.033 | [2] 0.001 | epoxomicin -0.024 | [3] -0.048 | [4] -0.009 | [5] -0.006 | rosiglitazone 0.007 | [6] -0.061 | [7] 0.054 | saracatinib 0.034 | sotrastaurin 0.023 | alvocidib -0.069 | Tubastatin A -0.015 | [8] -0.052 | defactinib -0.008 | rucaparib -0.097 | [9] -0.045 | encorafenib 0.012 | [10] 0.058

EXOSC5 (UniProt Q9NQT4)
inactive: [1] 0.054 | volasertib 0.096 | [2] -0.011 | epoxomicin -0.015 | [3] 0.012 | [4] 0.02 | [5] -0.063 | rosiglitazone 0 | [6] -0.033 | [7] -0.03 | saracatinib -0.007 | sotrastaurin -0.012 | alvocidib 0.041 | Tubastatin A 0 | [8] -0.018 | defactinib 0.059 | rucaparib -0.012 | [9] -0.015 | encorafenib -0.013 | [10] 0.025

FAM192A (UniProt Q9GZU8)
inactive: [1] -0.061 | volasertib 0.077 | [2] -0.028 | epoxomicin -0.088 | [3] 0.015 | [4] -0.018 | [5] -0.062 | rosiglitazone -0.008 | [6] -0.055 | [7] -0.037 | saracatinib -0.04 | sotrastaurin 0.081 | alvocidib 0.047 | Tubastatin A -0.038 | [8] -0.026 | defactinib -0.011 | rucaparib -0.055 | [9] -0.101 | encorafenib -0.014 | [10] 0.076

FAM20B (UniProt O75063)
inactive: [1] -0.01 | volasertib -0.091 | [2] 0.047 | epoxomicin 0.01 | [3] -0.008 | [4] 0.008 | [5] -0.042 | rosiglitazone 0.011 | [6] -0.05 | [7] 0.098 | saracatinib -0.032 | sotrastaurin 0.005 | alvocidib -0.051 | Tubastatin A 0.119 | [8] -0.064 | defactinib -0.059 | rucaparib -0.032 | [9] -0.034 | encorafenib 0.064 | [10] 0.01

F11R (UniProt Q9Y624)
inactive: [1] 0.128 | volasertib 0.062 | [2] -0.031 | epoxomicin -0.017 | [3] 0.03 | [4] -0.022 | [5] -0.043 | rosiglitazone -0.009 | [6] -0.069 | [7] 0.094 | saracatinib 0.021 | sotrastaurin 0.06 | alvocidib -0.025 | Tubastatin A -0.021 | [8] 0.008 | defactinib -0.057 | rucaparib 0.021 | [9] 0.014 | encorafenib 0 | [10] 0.031

ETFA (UniProt P13804)
inactive: [1] -0.015 | volasertib 0.035 | [2] -0.001 | epoxomicin 0.031 | [3] -0.01 | [4] -0.055 | [5] 0.012 | rosiglitazone 0.016 | [6] -0.083 | [7] -0.051 | saracatinib -0.027 | sotrastaurin 0.019 | alvocidib -0.055 | Tubastatin A -0.041 | [8] 0.02 | defactinib -0.031 | rucaparib -0.067 | [9] 0.037 | encorafenib -0.001 | [10] -0.003

Source: the supplement of paper PMC10849652
